According to US20260028418A1 (GC CELL, published 2026):
These are yes or no findings as the source states them, for the method shown. Some entries that bind do so weakly or less than the wild type.

How the values were obtained:
HER2-ECD DIV Fc (human) [1] = molecular target: HER2-ECD DIV Fc (human) (UniProt P04626); assay: ELISA on plate-coated HER2 domain-Fc fusion (1 µg/mL), anti-human IgG-HRP, Abs 450 nm; antibody concentration not given
HER2-ECD DIV Fc (human) [2] = molecular target: HER2-ECD DIV Fc (human) (UniProt P04626); assay: ELISA on immobilized HER2-ECD domain Fc fusion proteins
HER2-ECD DI Fc [3] = molecular target: T1, HER2-ECD DI Fc (human, UniProt P04626 23-217, limits assumed); assay: as above
T1 construct: domain: domain 1; also called domain 1 of the extracellular domains of the HER2 protein; not shown: Hinge and Fc region (CH2-CH3) of human IgG1, at the C-terminus

HER2-ECD DI Fc [4] = molecular target: T1, HER2-ECD DI Fc; assay: ELISA on plate-coated HER2 domain-Fc fusion (1 µg/mL), anti-human IgG-HRP, Abs 450 nm; antibody concentration not given
Procedure: The HER2-ECD DI Fc, HER2-ECD DII Fc, HER2-ECD DIII Fc, HER2-ECD DIV Fc and HER2-ECD Fc fusion proteins were immobilized at 4° C. overnight onto a Costar 96-well plate (Corning, Cat. No. 3590) at a concentration of 1 μg/mL […]. The resultant was washed 3 times with TBS-T (0.05% Triton X-100) and then blocked at room temperature for 1 hour with 100 μL of TBS-T/BSA (5% BSA). After washing the blocked plate 3 times and adding the anti-HER2 antibody, the antibody was allowed to bind at room temperature for 1 hour. After washing 3 times and then adding anti-human IgG-HRP diluted to 1:3,000 in TBS-T/BSA, as a secondary antibody, the antibody was allowed to bind at room temperature for 1 hour. After washing the resultant 3 times and adding TMB (SurModics, Cat. No. TMBC-1000-01), the mixture was allowed to develop color at room temperature for 5 minutes. Then, the color development was stopped by adding 1 N sulfuric acid (DukSan, Cat. No. 254). Absorbance was measured at 450 nm using Victor X3 (PerkinElmer, Cat. No. 2030-0030).

B1: hz8G11 (antibody, V domains shown)
VH: QVQLVQSGQEVKKPGASVKVSCKASGYSFTGYYMHWVRQAPGQGLEWIGHINPNNGGTSYNQKFKGRTTLTVDKSISTAYMELSRLRSDDTAVYYCAREEAFAYWGQGTLVTVSS
VL: DIQMTQSPSSLSASVGDRVTISCRASQDISNYLNWYQQKPGKAPKLLIYYTSRLHSGVPSRFSGSGSGTDFSLTISSLQPEDIATYYCQQGITPPWTFGGGTKVEIK
notes: Humanized antibody, detected with anti-human IgG-HRP; also called humanized 8G11 antibody
Which results are given for B1?
binding (HER2-ECD DIV Fc (human) [1]): binds; binding (HER2-ECD DIV Fc (human) [2]): binds

B2: hz2G10 (antibody, V domains shown)
VH: EVQLVESGGGLVQPGGSLRLSCAASGFTFSDYYMYWVRQAPGKGLEWVAYINSGGGSTYYPDTVKGRFTISRDNAKNSLYLQMNSLRAEDTAVYYCAREALYDYDYAMDYWGQGTTVTVSS
VL: DIVMTQSPLSLSVTPGQPASISCKSSQSLLYSNGKTYLNWLLQKPGQSPQRLIYLVSKLDSGVPDRFSGSGSGTDFTLKISRVEAEDVGVYYCVQGTHFPLTFGGGTKVEIK
notes: Humanized antibody, detected with anti-human IgG-HRP; Only the variable domains are tied to the name; also called humanized 2G10 antibody
Which binding (HER2-ECD DI Fc [3]) does the source give for B2 here?
Its binding is “binds”.

What about the binding (HER2-ECD DI Fc [4]) of the same binder?
Its binding is “binds”.

B3: hz39D2 (antibody, V domains shown)
VH: QVQLVQSGSELKKPGASVKVSCKASGYTFTNYGVNWVRQAPGQGLEWMGWINTHTGEPTYAEEFKGRFVFSLDTSVSTAYLQISSLKAEDTAVYYCARDDYYVRVDYWGQGTTVTVSS
VL: DIQMTQSPSSLSASVGDRVTITCKASQDINSYLSWFQQKPGKAPKTLIYRANRLVDGVPSRFSGSGSGQDYTLTISSLQPEDFATYYCLQYDEFPWTFGQGTKVEIK
notes: Humanized antibody, captured as IgG by anti-human IgG in SPR; also called humanized 39D2 antibody
How did the binding (HER2-ECD DI Fc [3]) turn out when B3 was run?
The binding was “binds”.

What about the binding (HER2-ECD DI Fc [4]) of the same binder?
The binding was “binds”.

B4: 1G3 (antibody, V domains shown)
VH: EVQLQQSGAELVKPGASVKLSCTASDFNIVDTYMHWVKQRPEQGLEWIGRIDPANGYTRYDPNFQGKATITADTSSNTAYLQLSSLTSEDTAVYYCARYYYGFYAMDYWGQGTTVTVSS
VL: DIVMTQSHKFMSTSVGDRVSITCKASQDVSTAVAWYQQKPGQSPKLLIYSASYRYTGVPDRFTGSGSGTDFTFTISSVQAEDLAVYYCQQHYSTPPTFGGGTKLELK
B4 was tested. Which binding (HER2-ECD DIV Fc (human) [1]) did it give?
The binding was “binds”.

And the binding (HER2-ECD DIV Fc (human) [2])?
The binding was “binds”.
